The record followed here is publication doi:10.1101/2020.08.20.259994.

Sequences of proteins named here, by UniProt entry; tags and fusion partners are left off.
UniProt P35820: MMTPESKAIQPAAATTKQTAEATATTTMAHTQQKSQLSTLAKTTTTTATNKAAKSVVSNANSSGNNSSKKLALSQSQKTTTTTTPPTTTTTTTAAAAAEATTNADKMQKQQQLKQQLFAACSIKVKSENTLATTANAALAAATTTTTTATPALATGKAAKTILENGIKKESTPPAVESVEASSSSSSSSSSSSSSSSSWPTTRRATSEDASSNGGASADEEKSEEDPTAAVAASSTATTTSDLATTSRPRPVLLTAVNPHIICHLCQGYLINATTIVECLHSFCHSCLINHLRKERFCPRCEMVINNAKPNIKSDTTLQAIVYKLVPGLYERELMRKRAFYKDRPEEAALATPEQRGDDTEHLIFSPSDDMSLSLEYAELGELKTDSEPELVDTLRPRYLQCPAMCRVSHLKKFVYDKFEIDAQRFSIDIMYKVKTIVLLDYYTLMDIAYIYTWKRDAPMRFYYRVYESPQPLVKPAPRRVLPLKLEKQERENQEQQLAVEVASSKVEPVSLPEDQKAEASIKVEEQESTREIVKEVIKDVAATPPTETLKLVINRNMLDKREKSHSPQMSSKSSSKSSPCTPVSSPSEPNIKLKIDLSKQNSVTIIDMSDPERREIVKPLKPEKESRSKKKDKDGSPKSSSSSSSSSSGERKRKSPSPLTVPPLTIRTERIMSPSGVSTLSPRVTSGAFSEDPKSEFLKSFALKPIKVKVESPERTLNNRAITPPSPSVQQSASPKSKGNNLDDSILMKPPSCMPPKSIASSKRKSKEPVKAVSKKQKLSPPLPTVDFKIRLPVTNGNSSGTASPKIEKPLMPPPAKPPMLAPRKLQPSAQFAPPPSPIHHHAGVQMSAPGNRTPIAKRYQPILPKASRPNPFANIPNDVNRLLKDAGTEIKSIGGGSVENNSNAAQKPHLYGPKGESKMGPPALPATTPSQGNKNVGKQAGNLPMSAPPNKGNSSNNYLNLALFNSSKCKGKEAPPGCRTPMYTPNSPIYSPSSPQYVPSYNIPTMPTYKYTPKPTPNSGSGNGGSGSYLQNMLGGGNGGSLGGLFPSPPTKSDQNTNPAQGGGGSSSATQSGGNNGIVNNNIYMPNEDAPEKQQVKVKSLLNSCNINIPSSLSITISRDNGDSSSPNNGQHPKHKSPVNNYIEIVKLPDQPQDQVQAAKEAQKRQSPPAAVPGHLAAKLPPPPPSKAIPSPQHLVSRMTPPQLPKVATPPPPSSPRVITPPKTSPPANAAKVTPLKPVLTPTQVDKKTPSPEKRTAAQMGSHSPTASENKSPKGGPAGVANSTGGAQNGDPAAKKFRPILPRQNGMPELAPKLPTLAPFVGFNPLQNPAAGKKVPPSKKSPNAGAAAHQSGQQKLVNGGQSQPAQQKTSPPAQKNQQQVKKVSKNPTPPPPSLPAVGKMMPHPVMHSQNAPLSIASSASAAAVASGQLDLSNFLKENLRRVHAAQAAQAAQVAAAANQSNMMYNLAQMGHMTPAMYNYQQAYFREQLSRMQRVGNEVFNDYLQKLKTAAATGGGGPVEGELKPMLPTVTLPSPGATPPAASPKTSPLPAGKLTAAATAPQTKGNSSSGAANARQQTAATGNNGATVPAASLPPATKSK
UniProt Q24572: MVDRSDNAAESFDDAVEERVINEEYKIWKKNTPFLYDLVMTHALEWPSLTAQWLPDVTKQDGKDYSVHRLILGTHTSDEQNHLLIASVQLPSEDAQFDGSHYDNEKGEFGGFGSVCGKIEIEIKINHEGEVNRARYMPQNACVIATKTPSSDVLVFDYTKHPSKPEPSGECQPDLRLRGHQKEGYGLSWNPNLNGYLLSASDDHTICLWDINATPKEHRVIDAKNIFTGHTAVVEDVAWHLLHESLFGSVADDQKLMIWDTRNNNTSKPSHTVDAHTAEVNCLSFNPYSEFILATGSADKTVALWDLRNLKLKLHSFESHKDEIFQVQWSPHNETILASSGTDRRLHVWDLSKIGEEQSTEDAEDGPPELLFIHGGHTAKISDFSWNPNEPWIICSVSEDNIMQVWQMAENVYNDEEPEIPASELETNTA

The target of assay [1] is T1, Mini-Ph (Drosophila melanogaster) (UniProt P39769).
T1 sequence: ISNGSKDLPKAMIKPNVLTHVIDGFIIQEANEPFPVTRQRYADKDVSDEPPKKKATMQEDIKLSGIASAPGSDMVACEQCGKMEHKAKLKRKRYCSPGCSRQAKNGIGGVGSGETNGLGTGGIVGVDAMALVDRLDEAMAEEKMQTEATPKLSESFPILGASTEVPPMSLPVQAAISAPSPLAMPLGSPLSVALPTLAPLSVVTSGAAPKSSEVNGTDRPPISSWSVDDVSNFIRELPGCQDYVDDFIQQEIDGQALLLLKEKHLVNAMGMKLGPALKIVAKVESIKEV
The assay is described as follows: co-sedimentation.

In assay [2] the target is Flag-PSC (Drosophila) (UniProt P35820). As to the kind of experiment: co-IP.

No constants are given. Whether binding was seen depends on the method and setting. Binding seen in cells or lysates may run through a third protein. Some binding calls cover weakened binding; strength is not graded here.

Consider p55 (from UniProt Q24572 1-430), for which, in assay [1], the binding entry was “no binding”.

B1: Su(Z)12 (protein, UniProt Q9NJG9 1-900)
chain: MAPAKKREKDSNPDGSAANGIIGLTHGAPDASNAGSTVPPTAEGQVKLNGHQQEQELFLQAFEKPTQIYRYLRNRHETNPIFLNRTLSYMKERMSRNNKKRISFQVNSMLESITQKSEAVSQNYLHVIYDSLHEKLPARLDNESGEDLLQEQLLCEAGESVSVETTLYKITRSKRKDSTLDFQELLSKCSQIVYNPKDRVGEHATISIPLQTMRPMGEQHTLYKLLFRIKVLSPSTCNDENAETPPNKRSRPNEKMFGSELILYEKSSGFITEGEYEAMLQPLNSTSIKSFSPKKCTWETMPDSYIPLSLTYDVYQQSPMLKFHLTLSNEQLPEMISAPELQRYVQHLDAVAEMNYNNNNYNNNNNCSGLKNGSGGGNSTVCKTTPEHIQIVYNFMYSNNTRQQTEYTQELNCPWCGLDCLRLYALLKHLKLCHARFNFTYQPAGSGARIDVTINDAYDGSYAGSPYDLAGPSGSSFARTCGPVRRTSVTSLMVCRPRRQKTCLDEFLELDEDEISNQRSYITGHNRLYHHTETCLPVHPKELDIDSEGESDPLWLRQKTIQMIDEFSDVNEGEKELMKLWNLHVMRHGFVGDCQLPIACEMFLDAKGTEIVRKNLYRNFILHMCSLFDYGLIAAETVYKTVQKLQGLLSKYAAGQELMQRQREEQLKYWLDVGMHKKQEDPKTLKSPQKPAPPADQASTSSASTSGSGSGSSSMQPPKRMPAHLKRGSAASSPGVQSKGTENGTNGSNSSSSNSKNVAKKSADQPLSTLANTRERRSEYGQKRNVSGSRLAATPASKRKLSSKDNTVLNKRQRYSDGSPGTGIGNGHGGGSGSGANRNKSNNHSLPATSNNASSSSSNSKRAIARRRSTSERTKASGSTGGGAGGVRTRLSVPAKYERR
As for B1, the binding result in assay [1] is recorded as “no binding”.

B2: ACF1 (protein, UniProt Q9V9T4 1-1476)
chain: MPICKREGFDLNQKEGKNETFHDNDQVFCCYITKRIFRDYEHYFRHVMVINSTVWQCEATGKENLTYEEAVKSERAARKKMEQFKQSLRAPVLLVVEHAQQSAVNTLNMIVAKFLRKRYFIGEEVSVQAKKNATYTVLGVKLDKNMPEPLNGIYEDTDNLVYRLRPNKGDPSAELDLPFRQLRRSRMEFNLENLSMFIKSNVSRVDGLLRPKPEAYKQYVTDPGVNFSTIFIGKMPRYSPAKIKKPDGKKQSTLNKYIVAGEATAAKSKAKAKSDAKSLAEELERVKREKEAKLIELEKQKAEKKAQLIERVENECNLLLQKTDDLERTDQKVLPRYRQIVTLLPEHLLGDAFMMREFMHTYTGLLSGIEVFRQNLSFYEMTRALTAREIAGPLSDILLVLLGTVFDLQKEEEEECAVTYLDRAAQTQEPYWSMAQAAKSHLYAKRHFSFKVNELPLDALTLSEVLRLHLLGSGAFVNEKAERWRVMYRNGYSSKEDPGLELRLEHSHILRILKNHSVYQLKFKDIMLLIRCLMSQIMTYSGTINLIEERMEQTAKARQDLRALVVGENKRLAAVEINRKKLTQMHHLEVNGVEPEKREALVEKLKKSIAELHAQSDQQHRKHELQMLKLHSQLFNFLVYLGMDRCYRKYYVLESMPGIFVEHSPDSLDTCLEQPITNKSQIEIRQQSALPKNRKDLRVYLLKLYGDDEKKTKKKAKHSLENKENQEHRLNGSAEPMDVESDSPEAPTHFELLMCSGDKRSCIVHDSRNGQRQRWAYIYKAEEIDELIKALNPNGLREYELLQELSVLRSLIEQHAKTCPVDLLSLENETMRKKFMAAMESETNRKYGEANFGLPNGTDLNEVMRLHLVDRIIQFENDIYTGDLGRLKVKDMEKWRSDLLGGNYDAQCKLQWGPGGKLEDEAGSDNESHETHEEDDGALLGKYARKPYRDPGMYLAASADTKPLPDSDDEEDQHTNAVSIPIAVHNMASALLQVEQAIGKRFLKEPYGMKKWDPKQEALKLACDSRLHQWEVSLMESTSFAQVFLHLNILHDCIQWRRSTNKSLCKVCRRGSDPEKMLLCDECNAGTHMFCLKPKLRSVPPGNWYCNDCVKSLGLSNGQNEKDKKQATKKKRKFIVEEEDDEATDEEEEEKKDDDMTDEDAEHENEKHDEDVEDDESVTSTPSSSRVNGRILRRPRTRPTSRRLTSKEIEEHAQEDVDSGDVSDDASLTAGEDTIEDESDEEKVCQKCFYDGGEIKCVQCRLFFHLECVHLKRPPRTDFVCKTCKPMPQRPRRRHSNMNGDHDRDEEEPKAKRPRNSLRLSIDKTARPSNGNNNNNNNNSSVNNNNHRRSGRRTNEHMPLNSAALYDLLEQIMKHKAAWPFLRPVLTSEVPDYHQIIKTPMDLAKIKSKLNMGAYQLNEELLSDIQLVFRNCDLYNVEGNEIYDAGCQLERFVIDRCRDMQLPFRPSDMNGEVKAC
As to B2, the binding entry in assay [1] is listed as “no binding”.

B3: Pc (protein, UniProt P26017 1-390)
chain: MTGRGKGSKGKLGRDNATDDPVDLVYAAEKIIQKRVKKGVVEYRVKWKGWNQRYNTWEPEVNILDRRLIDIYEQTNKSSGTPSKRGIKKKEKEPDPEPESEEDEYTFTENDVDTHQATTSSATHDKESKKEKKHHHHHHHHHHIKSERNSGRRSESPLTHHHHHHHHESKRQRIDHSSSSNSSFTHNSFVPEPDSNSSSSEDQPLIGTKRKAEVLKESGKIGVTIKTSPDGPTIKPQPTQQVTPSQQQPFQDQQQAEKIASEAATQLKSEQQATPLATEAINTTPAESGAEEEEVANEEGNQQAPQVPSENNNIPKPCNNLAINQKQPLTPLSPRALPPRFWLPAKCNISNRVVITDVTVNLETVTIRECKTERGFFRERDMKGDSSPVA
Take B3: the binding result in assay [2] is given as “binds”.

B4: dRING (protein, UniProt Q9VB08 1-435)
chain: MTSLDPAPNKTWELSLYELQRKPQEVITDSTEIAVSPRSLHSELMCPICLDMLKKTMTTKECLHRFCSDCIVTALRSGNKECPTCRKKLVSKRSLRADPNFDLLISKIYPSREEYEAIQEKVMAKFNQTQSQQALVNSINEGIKLQSQNRPQRFRTKGGGGGGGGGGNGNGAANVAAPPAPGAPTAVGRNASNQMHVHDTASNDSNSNTNSIDRENRDPGHSGTSAASAITSASNAAPSSSANSGASTSATRMQVDDASNPPSVRSTPSPVPSNSSSSKPKRAMSVLTSERSEESESDSQMDCRTEGDSNIDTEGEGNGELGINDEIELVFKPHPTEMSADNQLIRALKENCVRYIKTTANATVDHLSKYLAMRLTLDLGADLPEACRVLNFCIYVAPQPQQLVILNGNQTLHQVNDKFWKVNKPMEMYYSWKKT
As for B4, the binding entry in assay [2] is given as “binds”.
